Measurements as given in article PMC4839765.
Results are given in words; binding and its absence hold for the method and conditions named. In cells and extracts the contact can be indirect. Some binding calls cover weakened binding; strength is not graded here. Tags and fused reporters may be left off the sequences shown.

Amino acid sequences for entries named in this document (tags omitted). Residues count along the entry.
UniProt P06731, residues 35-685: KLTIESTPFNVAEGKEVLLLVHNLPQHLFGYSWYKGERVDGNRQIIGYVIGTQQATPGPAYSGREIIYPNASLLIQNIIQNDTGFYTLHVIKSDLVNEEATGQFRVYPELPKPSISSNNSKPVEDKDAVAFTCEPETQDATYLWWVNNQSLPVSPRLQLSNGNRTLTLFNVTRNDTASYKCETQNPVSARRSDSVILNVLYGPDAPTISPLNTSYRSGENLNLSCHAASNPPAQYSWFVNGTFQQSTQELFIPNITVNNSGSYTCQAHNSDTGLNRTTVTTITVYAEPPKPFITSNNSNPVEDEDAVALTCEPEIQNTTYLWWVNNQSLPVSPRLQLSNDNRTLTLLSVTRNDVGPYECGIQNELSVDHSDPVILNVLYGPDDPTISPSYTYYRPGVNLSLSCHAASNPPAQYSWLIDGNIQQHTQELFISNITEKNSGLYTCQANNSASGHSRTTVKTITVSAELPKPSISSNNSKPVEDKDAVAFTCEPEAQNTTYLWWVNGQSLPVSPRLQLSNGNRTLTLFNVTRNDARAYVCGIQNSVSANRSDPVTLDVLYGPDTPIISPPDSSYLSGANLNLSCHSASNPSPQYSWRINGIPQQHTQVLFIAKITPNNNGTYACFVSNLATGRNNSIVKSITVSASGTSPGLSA

Molecular target: CEA wild type (FL) (human) (UniProt P06731)
Assay: co-IP; HCT116 cells co-transfected with CEA (FL, N-B2, N-A3) and HA-TGFBR1-FL or HA-TGFBR1-del 1–104, 48 h; lysis in 20mM Tris, 100mM NaCl, 0.5% Nonidet P-40, 0.5% Triton X-100, 1mM EDTA; IP with CEA antibody and protein G plus agarose at 4°C; immunoblotting

B1: HA-TGFBR1-FL (receptor, UniProt P36897 34-503)
chain: LQCFCHLCTKDNFTCVTDGLCFVSVTETTDKVIHNSMCIAEIDLIPRDRPFVCAPSSKTGSVTTTYCCNQDHCNKIELPTTVKSSPGLGPVELAAVIAGPVCFVCISLMLMVYICHNRTVIHHRVPNEEDPSLDRPFISEGTTLKDLIYDMTTSGSGSGLPLLVQRTIARTIVLQESIGKGRFGEVWRGKWRGEEVAVKIFSSREERSWFREAEIYQTVMLRHENILGFIAADNKDNGTWTQLWLVSDYHEHGSLFDYLNRYTVTVEGMIKLALSTASGLAHLHMEIVGTQGKPAIAHRDLKSKNILVKKNGTCCIADLGLAVRHDSATDTIDIAPNHRVGTKRYMAPEVLDDSINMKHFESFKRADIYAMGLVFWEIARRCSIGGIHEDYQLPYYDLVPSDPSVEEMRKVVCEQKLRPNIPNRWQSCEALRVMAKIMRECWYANGAARLTALRIKKTLSQLSQQEGIKM
- binding: binds
